# Tested on: ovarian cancer tissue samples
# Experiment: Identification of tumor associated peptides presented on the cell surface (HLA immunoprecipitation, LC-MS); presentation across tumor types
# Parameters: species or system human
# Conditions: tumor types on which the peptide was found presented (HLA immunoprecipitation, LC-MS); abbreviations in table footnote
row,Substance,Peptide Presentation on tumor types
1,612 (TVAEVQKLLGPHVEGLK; listed as Homo sapiens) [compound 612],NSCLC
2,630 (ALRGLLPVLGQPIIRSIPQ; listed as Homo sapiens) [compound 630],NSCLC
3,286 (TVAPPQGVVK; listed as Homo sapiens) [compound 286],HCC
4,455 (AAAANAQVY; listed as Homo sapiens) [compound 455],"BRCA, UEC"
5,607 (LTVAEVQKLLGPHVEGLKAEE; listed as Homo sapiens) [compound 607],NSCLC
6,613 (LTVAEVQKLLGPHVEG; listed as Homo sapiens) [compound 613],NSCLC
7,32 (SPNKGTLSV; listed as Homo sapiens) [compound 32],NSCLC
8,467 (MQMQERDTL; listed as Homo sapiens) [compound 467],"GEJC, HNSCC, NHL, NSCLC, OSCAR"
9,445 (LHITPGTAY; listed as Homo sapiens) [compound 445],"HCC, PRCA"
10,388 (SPAPLKLSRTPA; listed as Homo sapiens) [compound 388],MEL
11,53 (MEHPGKLLF; listed as Homo sapiens) [compound 53],UEC
12,119 (APLPRPGAVL; listed as Homo sapiens) [compound 119],"MEL, OSCAR"
13,481 (GRWEKTDLTY; listed as Homo sapiens) [compound 481],"BRCA, GBC, HNSCC, MEL, NSCLC, OSCAR, PACA, SCLC, UBC, UEC"
14,252 (LYQPRASEM; listed as Homo sapiens) [compound 252],NHL
15,94 (ATFERVLLR; listed as Homo sapiens) [compound 94],"BRCA, NSCLC"
16,546 (GRAFFAAAF; listed as Homo sapiens) [compound 546],"CRC, GBM, HNSCC, MEL, NSCLC, OSCAR, PACA, SCLC, UBC, UEC"
17,376 (RPRSPAGQVA; listed as Homo sapiens) [compound 376],PACA
18,634 (DALRGLLPVLGQPIIRS; listed as Homo sapiens) [compound 634],NSCLC
19,686 (VRGSLLSEADVRALGGL; listed as Homo sapiens) [compound 686],NSCLC
20,454 (AQTDPTTGY; listed as Homo sapiens) [compound 454],"GBM, GC, NSCLC"
21,291 (ETIRSVGYY; listed as Homo sapiens) [compound 291],"GBM, NSCLC, UBC"
22,15 (VYHDDKQPTF; listed as Homo sapiens) [compound 15],"GBM, GC, NSCLC, OSCAR, UEC"
23,487 (GMADILVVF; listed as Homo sapiens) [compound 487],NSCLC
24,471 (AQRLDPVYF; listed as Homo sapiens) [compound 471],"CCC, CRC, GBC, GEJC, NSCLC, OSCAR, PACA, SCLC, UBC"
25,482 (GRWEKTDLTYR; listed as Homo sapiens) [compound 482],"HNSCC, NSCLC, OSCAR, PACA, SCLC, UEC"

row,Substance,Peptide Presentation on tumor types
1,419 (HEFGHVLGL; listed as Homo sapiens) [compound 419],"BRCA, CCC, CRC, GC, HNSCC, MEL, NSCLC, OSCAR, PACA, UEC"
2,68 (KLFDTQQFL; listed as Homo sapiens) [compound 68],"AML, BRCA, CRC, HCC, HNSCC, MEL, NHL, NSCLC, OSCAR, RCC"
3,123 (KPSESIYSAL; listed as Homo sapiens) [compound 123],"BRCA, CRC, HNSCC, MEL, NHL, NSCLC, OSCAR, SCLC, UBC"
4,330 (FPFVTGSTEM; listed as Homo sapiens) [compound 330],UEC
5,147 (APRWFPQPTVV; listed as Homo sapiens) [compound 147],BRCA
6,279 (SVSSETTKIKR; listed as Homo sapiens) [compound 279],UEC
7,386 (FPFNPLDF; listed as Homo sapiens) [compound 386],"GC, NHL"
8,653 (LPVLGQPIIRSIPQGIVA; listed as Homo sapiens) [compound 653],NSCLC
9,260 (GTNTVILEY; listed as Homo sapiens) [compound 260],"MEL, PACA, UEC"
10,322 (SPDPSKHLL; listed as Homo sapiens) [compound 322],"NHL, NSCLC, PRCA, RCC"
11,56 (SEPDTTASW; listed as Homo sapiens) [compound 56],"NSCLC, UEC"
12,666 (LPLTVAEVQKLLGPHVEG; listed as Homo sapiens) [compound 666],NSCLC
13,33 (SPTFHLTL; listed as Homo sapiens) [compound 33],"NSCLC, PRCA, SCLC, UBC, UEC"
14,69 (TTYEGSITV; listed as Homo sapiens) [compound 69],"NSCLC, UEC"
15,459 (KVAGERYVY; listed as Homo sapiens) [compound 459],"BRCA, CCC, CRC, GBM, HNSCC, MEL, NSCLC, OSCAR, PACA, PRCA, SCLC, UBC"
16,10 (RYSDSVGRVSF; listed as Homo sapiens) [compound 10],"BRCA, CRC, GBC, GC, NSCLC, SCLC, UBC, UEC"
17,451 (DYLNEWGSRF; listed as Homo sapiens) [compound 451],"NSCLC, OSCAR, UEC"
18,639 (ALRGLLPVLGQPII; listed as Homo sapiens) [compound 639],NSCLC
19,40 (KPGTSYRVTL; listed as Homo sapiens) [compound 40],GBM
20,12 (KYEKIFEML; listed as Homo sapiens) [compound 12],"AML, NSCLC"
21,447 (MQVLVSRI; listed as Homo sapiens) [compound 447],"GC, NSCLC, PACA, PRCA, RCC, SCLC"
22,496 (EVPTGTTAEVSR; listed as Homo sapiens) [compound 496],UEC
23,156 (HVKEKFLL; listed as Homo sapiens) [compound 156],"CCC, HNSCC"
24,656 (VLGQPIIRSIPQGIVA; listed as Homo sapiens) [compound 656],NSCLC
25,477 (RIQQQTNTY; listed as Homo sapiens) [compound 477],"GBM, SCLC"

row,Substance,Peptide Presentation on tumor types
1,200 (AESIPTVSF; listed as Homo sapiens) [compound 200],NSCLC
2,594 (VRGEVAPDAKSFVLN; listed as Homo sapiens) [compound 594],"NSCLC, RCC"
3,216 (IMFDDAIERA; listed as Homo sapiens) [compound 216],UEC
4,85 (VLLGSLFSRK; listed as Homo sapiens) [compound 85],"AML, CRC, HCC, MEL, NHL, NSCLC, RCC, UEC"
5,466 (DLIESGQLRER; listed as Homo sapiens) [compound 466],UEC
6,539 (IPIPSTGSVEM; listed as Homo sapiens) [compound 539],"CCC, GC, HNSCC, NSCLC, OSCAR, PRCA, SCLC, UBC, UEC"
7,389 (SPGAQRTFFQL; listed as Homo sapiens) [compound 389],"AML, MEL"
8,38 (SPHPVTALLTL; listed as Homo sapiens) [compound 38],"PACA, UEC"
9,29 (QQFLTALFY; listed as Homo sapiens) [compound 29],"PACA, PRCA"
10,528 (TRTGLFLRF; listed as Homo sapiens) [compound 528],"HNSCC, NSCLC, UEC"
11,457 (NAAAAANAQVY; listed as Homo sapiens) [compound 457],"BRCA, NSCLC, UEC"
12,191 (EEDAALFKAW; listed as Homo sapiens) [compound 191],"AML, BRCA, CCC, CLL, CRC, GC, HCC, HNSCC, MEL, NHL, NSCLC, OSCAR, PACA, PRCA, RCC, SCLC, UBC, UEC"
13,391 (APSTPRITTF; listed as Homo sapiens) [compound 391],"HCC, NHL"
14,333 (FPHSEMTTVM; listed as Homo sapiens) [compound 333],"NSCLC, SCLC, UEC"
15,71 (YLEDTDRNL; listed as Homo sapiens) [compound 71],"AML, BRCA, CCC, CRC, GBC, GC, GEJC, HCC, HNSCC, MEL, NHL, NSCLC, OSCAR, PACA, PRCA, RCC, SCLC, UBC, UEC"
16,264 (AIKVIPTVFK; listed as Homo sapiens) [compound 264],"HNSCC, MEL, NSCLC, RCC, UEC"
17,217 (VSSSLTLKV; listed as Homo sapiens) [compound 217],"BRCA, RCC"
18,486 (DRFFWLKV; listed as Homo sapiens) [compound 486],"NSCLC, SCLC"
19,300 (IPMAAVKQAL; listed as Homo sapiens) [compound 300],"AML, BRCA, CLL, CRC, GC, HCC, HNSCC, MEL, NSCLC, OSCAR, PACA, RCC, UEC"
20,592 (VRGEVAPDAKSFVLNLG; listed as Homo sapiens) [compound 592],"NSCLC, RCC"
21,646 (GLLPVLGQPIIRSIPQGIVAAWRQ; listed as Homo sapiens) [compound 646],NSCLC
22,127 (APRAGSQVV; listed as Homo sapiens) [compound 127],"AML, BRCA, CRC, GBM, HCC, HNSCC, MEL, NSCLC, OSCAR, PACA, PRCA, RCC, SCLC, UBC, UEC"
23,409 (REFVLSKGDAGL; listed as Homo sapiens) [compound 409],"GBC, GC, GEJC, HNSCC, NSCLC"
24,334 (FPYSEVTTL; listed as Homo sapiens) [compound 334],"NSCLC, SCLC, UEC"
